Laboratory results: PubChem BioAssay AID1259254 (NCATS, 2017)

Assay: 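Genome-wide screen for genes that prevent DNA re-replication in cancer cells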 (primary screen)
Cells: human HCT116 colorectal cancer cells
Reagents: single siRNA against human genes
Timing: 3 days
Detection: 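Imaged Hoechst DNA stain sorts each cell into a cycle phase by DNA amount; per plate, G2 fraction set to 0% for non-targeting and 100% for GMNN siRNA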
Direction: G2 robust z-score: higher = more G2 cells, more excess DNA replication
Call rule: 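An siRNA counts as active if its G2 robust z-score lies at least 5 MADs above the screen median; here such calls match roughly 38% of GMNN control or more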
In all, the deposit lists about 59,000 reagents; this is a part drawn at random. In the full data, about 1,550 (2.6%) were called active. 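G2 share is only a proxy for re-replication; each gene was hit by three separate siRNAs, and active genes were retested.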 Reagents against one gene are numbered here. Not all columns of the deposit are shown. The record does not give: the amount of reagent.

G2 robust z-score, by gene and reagent
UNC79 (unc-79 subunit of NALCN channel complex): #1 -0.0741 inactive; #2 -0.445 inactive; #3 -0.931 inactive
RCAN1 (regulator of calcineurin 1): #1 0.222 inactive; #2 1.3 inactive; #3 1.55 inactive
ATP13A2 (ATPase cation transporting 13A2): #1 0.658 inactive; #2 -0.586 inactive; #3 1.46 inactive
APOBEC3D (apolipoprotein B mRNA editing enzyme catalytic subunit 3D): #1 0.132 inactive; #2 0.0434 inactive; #3 -0.969 inactive
DTX3L (deltex E3 ubiquitin ligase 3L): #1 -0.343 inactive; #2 -0.367 inactive; #3 1.17 inactive
FILIP1L (filamin A interacting protein 1 like): #1 -0.269 inactive; #2 -0.832 inactive; #3 -0.204 inactive
TIMP2 (TIMP metallopeptidase inhibitor 2): #1 -1.07 inactive; #2 -1.12 inactive; #3 -0.57 inactive
GBGT1: #1 -0.739 inactive; #2 0.0998 inactive; #3 0.848 inactive
GJA1 (gap junction protein alpha 1): #1 1.98 inactive; #2 -0.493 inactive; #3 0.389 inactive
AGGF1 (angiogenic factor with G-patch and FHA domains 1): #1 2.38 inactive; #2 -0.725 inactive; #3 0.513 inactive
UGGT1 (UDP-glucose glycoprotein glucosyltransferase 1): #1 0.951 inactive; #2 0.499 inactive; #3 -0.122 inactive
RCOR3 (REST corepressor 3): #1 0.644 inactive; #2 1.25 inactive; #3 -0.823 inactive
TMEM129 (transmembrane protein 129, E3 ubiquitin ligase): #1 1.02 inactive; #2 0.153 inactive; #3 -0.248 inactive
MSRB2 (methionine sulfoxide reductase B2): #1 7.11 active; #2 9.05 active; #3 -0.355 inactive

Sorted by “G2 robust z-score” (low to high): some entries from above
gene	siRNA no.	G2 robust z-score	Outcome
TIMP2 (TIMP metallopeptidase inhibitor 2)	2	-1.12	inactive
TIMP2 (TIMP metallopeptidase inhibitor 2)	1	-1.07	inactive
APOBEC3D (apolipoprotein B mRNA editing enzyme catalytic subunit 3D)	3	-0.969	inactive
FILIP1L (filamin A interacting protein 1 like)	2	-0.832	inactive
GBGT1	1	-0.739	inactive
TIMP2 (TIMP metallopeptidase inhibitor 2)	3	-0.57	inactive
DTX3L (deltex E3 ubiquitin ligase 3L)	2	-0.367	inactive
DTX3L (deltex E3 ubiquitin ligase 3L)	1	-0.343	inactive
FILIP1L (filamin A interacting protein 1 like)	1	-0.269	inactive
FILIP1L (filamin A interacting protein 1 like)	3	-0.204	inactive
GBGT1	2	0.0998	inactive
GBGT1	3	0.848	inactive
DTX3L (deltex E3 ubiquitin ligase 3L)	3	1.17	inactive

More entries:
G2 robust z-score, by gene and reagent
TMEM37 (transmembrane protein 37): #1 -0.476 inactive; #2 0.313 inactive; #3 0.46 inactive
PRKAA1 (protein kinase AMP-activated catalytic subunit alpha 1): #1 -1.12 inactive; #2 0.456 inactive; #3 0.242 inactive
PTPN2 (protein tyrosine phosphatase non-receptor type 2): #1 -0.582 inactive; #2 0.056 inactive; #3 -0.414 inactive
ZBTB37 (zinc finger and BTB domain containing 37): #1 0.0258 inactive; #2 1.69 inactive; #3 -0.482 inactive
SPRR1A (small proline rich protein 1A): #1 8.07 active; #2 -1.22 inactive; #3 -0.606 inactive
PGD (phosphogluconate dehydrogenase): #1 -0.638 inactive; #2 -1.26 inactive; #3 0.115 inactive
IL1A (interleukin 1 alpha): #1 3.75 inactive; #2 -0.564 inactive; #3 0.276 inactive
RNF128 (ring finger protein 128): #1 1.64 inactive; #2 -0.859 inactive; #3 1.01 inactive
KATNB1 (katanin regulatory subunit B1): #1 -0.516 inactive; #2 2.35 inactive; #3 1.17 inactive
PUF60 (poly(U) binding splicing factor 60): #1 -0.374 inactive; #2 -0.279 inactive; #3 0.78 inactive
CYP27B1 (cytochrome P450 family 27 subfamily B member 1): #1 0.0309 inactive; #2 0.078 inactive; #3 2.14 inactive
KLRC3 (killer cell lectin like receptor C3): #1 0.947 inactive; #2 -0.896 inactive; #3 -0.294 inactive
SHD (Src homology 2 domain containing transforming protein D): #1 -0.994 inactive; #2 0.642 inactive; #3 1.84 inactive
KLKB1 (kallikrein B1): #1 4.12 inactive; #2 -0.405 inactive; #3 -0.0179 inactive
FANCC (FA complementation group C): #1 2.41 inactive; #2 -0.339 inactive; #3 -1.04 inactive
